In the supplement of paper PMC12823440, “Inhibitors supercharge kinase turnover through native proteolytic circuits” (Nature, 2025):
Structures can show the parent of a compound that is named as a salt. This is one part of the list. The calls rarely recur for the same compound in another form.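 In K562 cells expressing nanoluciferase-fused kinases, luminescence was recorded at 4 h intervals between 2 and 18 h, normalized as percent of control with DMSO at 100% and a positive control at 0%. A significant (2 sigma) signal drop marks a time point as decreased. The authors' rule for a hit is not shown and takes in more than the number of time points.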

The chains behind the UniProt entries cited, without tags or fusion partners. Where a name states a change or a piece, a line headed by the entry shows the natural chain unless it says otherwise.
UniProt Q15208: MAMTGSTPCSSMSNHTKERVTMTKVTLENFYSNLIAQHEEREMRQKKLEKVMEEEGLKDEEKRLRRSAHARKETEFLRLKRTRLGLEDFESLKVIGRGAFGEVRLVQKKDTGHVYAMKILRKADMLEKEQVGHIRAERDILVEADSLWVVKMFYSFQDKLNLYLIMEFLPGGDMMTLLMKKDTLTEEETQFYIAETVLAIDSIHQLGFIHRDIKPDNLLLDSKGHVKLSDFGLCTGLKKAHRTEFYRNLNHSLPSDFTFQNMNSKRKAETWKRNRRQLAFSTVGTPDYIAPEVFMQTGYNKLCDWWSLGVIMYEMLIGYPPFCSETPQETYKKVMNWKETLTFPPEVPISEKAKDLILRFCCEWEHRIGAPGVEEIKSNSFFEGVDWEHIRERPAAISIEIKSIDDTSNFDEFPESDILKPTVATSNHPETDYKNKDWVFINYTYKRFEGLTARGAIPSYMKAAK
UniProt P42680: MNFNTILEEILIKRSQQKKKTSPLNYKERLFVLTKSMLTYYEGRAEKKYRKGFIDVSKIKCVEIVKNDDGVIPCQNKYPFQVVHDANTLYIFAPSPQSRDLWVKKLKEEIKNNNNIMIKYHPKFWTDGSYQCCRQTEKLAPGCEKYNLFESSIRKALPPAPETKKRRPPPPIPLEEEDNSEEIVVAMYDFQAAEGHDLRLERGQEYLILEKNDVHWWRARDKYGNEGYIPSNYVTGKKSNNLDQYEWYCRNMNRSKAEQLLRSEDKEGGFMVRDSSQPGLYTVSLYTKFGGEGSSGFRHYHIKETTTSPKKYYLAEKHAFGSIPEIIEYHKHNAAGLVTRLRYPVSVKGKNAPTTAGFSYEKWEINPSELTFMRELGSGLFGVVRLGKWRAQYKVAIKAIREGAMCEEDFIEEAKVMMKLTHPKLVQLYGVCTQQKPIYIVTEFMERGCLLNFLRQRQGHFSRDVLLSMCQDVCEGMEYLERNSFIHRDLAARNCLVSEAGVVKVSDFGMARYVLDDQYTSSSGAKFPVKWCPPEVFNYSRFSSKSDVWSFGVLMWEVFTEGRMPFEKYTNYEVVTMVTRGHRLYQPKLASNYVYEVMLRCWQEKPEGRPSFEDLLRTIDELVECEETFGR
UniProt P07947, whole entry, looked up: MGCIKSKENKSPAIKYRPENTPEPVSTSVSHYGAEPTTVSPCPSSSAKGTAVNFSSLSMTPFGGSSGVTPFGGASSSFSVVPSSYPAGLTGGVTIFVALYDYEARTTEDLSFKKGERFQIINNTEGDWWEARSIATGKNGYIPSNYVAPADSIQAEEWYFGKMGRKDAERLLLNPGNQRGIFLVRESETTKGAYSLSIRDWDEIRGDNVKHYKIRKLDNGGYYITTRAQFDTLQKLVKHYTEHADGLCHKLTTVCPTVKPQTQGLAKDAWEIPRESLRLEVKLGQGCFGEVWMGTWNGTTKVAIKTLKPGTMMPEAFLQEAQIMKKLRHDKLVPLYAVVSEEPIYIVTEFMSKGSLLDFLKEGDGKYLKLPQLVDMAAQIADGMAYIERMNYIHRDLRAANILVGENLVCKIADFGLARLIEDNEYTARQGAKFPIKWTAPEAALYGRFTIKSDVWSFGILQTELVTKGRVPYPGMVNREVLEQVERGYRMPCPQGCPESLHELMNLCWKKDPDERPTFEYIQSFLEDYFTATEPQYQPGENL
UniProt P43403: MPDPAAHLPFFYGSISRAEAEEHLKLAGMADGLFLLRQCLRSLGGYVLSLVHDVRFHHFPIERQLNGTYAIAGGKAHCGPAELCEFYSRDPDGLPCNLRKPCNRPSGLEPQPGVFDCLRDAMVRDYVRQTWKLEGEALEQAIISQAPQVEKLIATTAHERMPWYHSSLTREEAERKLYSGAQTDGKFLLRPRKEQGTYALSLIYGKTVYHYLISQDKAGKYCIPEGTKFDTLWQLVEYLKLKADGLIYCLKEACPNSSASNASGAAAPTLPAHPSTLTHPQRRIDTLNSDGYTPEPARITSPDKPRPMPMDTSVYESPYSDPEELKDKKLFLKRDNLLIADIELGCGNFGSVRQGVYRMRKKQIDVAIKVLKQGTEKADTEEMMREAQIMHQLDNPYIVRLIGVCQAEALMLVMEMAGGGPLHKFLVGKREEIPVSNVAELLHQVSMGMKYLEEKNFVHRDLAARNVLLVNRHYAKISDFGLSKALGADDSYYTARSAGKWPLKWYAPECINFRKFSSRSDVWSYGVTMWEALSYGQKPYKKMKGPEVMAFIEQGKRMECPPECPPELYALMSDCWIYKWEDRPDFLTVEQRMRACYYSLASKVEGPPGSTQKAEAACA
UniProt P00519, whole entry: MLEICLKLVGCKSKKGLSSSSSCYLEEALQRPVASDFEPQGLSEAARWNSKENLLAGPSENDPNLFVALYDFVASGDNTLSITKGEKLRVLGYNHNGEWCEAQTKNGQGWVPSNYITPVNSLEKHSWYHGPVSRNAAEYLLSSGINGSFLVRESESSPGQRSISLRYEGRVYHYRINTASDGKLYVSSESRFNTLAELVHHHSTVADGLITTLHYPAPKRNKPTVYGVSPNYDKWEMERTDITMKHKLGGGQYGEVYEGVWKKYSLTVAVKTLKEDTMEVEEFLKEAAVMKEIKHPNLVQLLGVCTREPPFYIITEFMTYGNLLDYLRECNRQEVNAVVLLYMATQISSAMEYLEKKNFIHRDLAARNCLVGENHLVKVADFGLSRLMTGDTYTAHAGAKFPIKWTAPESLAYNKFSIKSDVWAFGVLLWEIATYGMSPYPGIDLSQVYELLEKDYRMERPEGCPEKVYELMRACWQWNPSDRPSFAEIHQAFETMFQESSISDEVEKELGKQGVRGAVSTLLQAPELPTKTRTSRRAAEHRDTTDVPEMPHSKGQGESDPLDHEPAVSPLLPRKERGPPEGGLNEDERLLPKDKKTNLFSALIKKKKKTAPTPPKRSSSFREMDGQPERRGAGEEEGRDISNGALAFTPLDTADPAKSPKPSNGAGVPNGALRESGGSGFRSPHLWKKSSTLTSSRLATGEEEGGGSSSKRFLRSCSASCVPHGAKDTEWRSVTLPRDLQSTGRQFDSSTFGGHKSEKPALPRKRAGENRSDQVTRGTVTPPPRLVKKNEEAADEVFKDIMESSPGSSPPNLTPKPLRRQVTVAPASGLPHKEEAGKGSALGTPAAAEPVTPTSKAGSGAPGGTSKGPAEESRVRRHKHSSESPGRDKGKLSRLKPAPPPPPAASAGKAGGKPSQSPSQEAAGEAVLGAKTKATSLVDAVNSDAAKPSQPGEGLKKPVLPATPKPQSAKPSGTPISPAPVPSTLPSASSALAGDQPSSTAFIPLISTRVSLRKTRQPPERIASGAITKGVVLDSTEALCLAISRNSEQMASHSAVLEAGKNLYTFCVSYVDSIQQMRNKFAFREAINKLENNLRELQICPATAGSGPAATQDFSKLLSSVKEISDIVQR
UniProt Q9UM73: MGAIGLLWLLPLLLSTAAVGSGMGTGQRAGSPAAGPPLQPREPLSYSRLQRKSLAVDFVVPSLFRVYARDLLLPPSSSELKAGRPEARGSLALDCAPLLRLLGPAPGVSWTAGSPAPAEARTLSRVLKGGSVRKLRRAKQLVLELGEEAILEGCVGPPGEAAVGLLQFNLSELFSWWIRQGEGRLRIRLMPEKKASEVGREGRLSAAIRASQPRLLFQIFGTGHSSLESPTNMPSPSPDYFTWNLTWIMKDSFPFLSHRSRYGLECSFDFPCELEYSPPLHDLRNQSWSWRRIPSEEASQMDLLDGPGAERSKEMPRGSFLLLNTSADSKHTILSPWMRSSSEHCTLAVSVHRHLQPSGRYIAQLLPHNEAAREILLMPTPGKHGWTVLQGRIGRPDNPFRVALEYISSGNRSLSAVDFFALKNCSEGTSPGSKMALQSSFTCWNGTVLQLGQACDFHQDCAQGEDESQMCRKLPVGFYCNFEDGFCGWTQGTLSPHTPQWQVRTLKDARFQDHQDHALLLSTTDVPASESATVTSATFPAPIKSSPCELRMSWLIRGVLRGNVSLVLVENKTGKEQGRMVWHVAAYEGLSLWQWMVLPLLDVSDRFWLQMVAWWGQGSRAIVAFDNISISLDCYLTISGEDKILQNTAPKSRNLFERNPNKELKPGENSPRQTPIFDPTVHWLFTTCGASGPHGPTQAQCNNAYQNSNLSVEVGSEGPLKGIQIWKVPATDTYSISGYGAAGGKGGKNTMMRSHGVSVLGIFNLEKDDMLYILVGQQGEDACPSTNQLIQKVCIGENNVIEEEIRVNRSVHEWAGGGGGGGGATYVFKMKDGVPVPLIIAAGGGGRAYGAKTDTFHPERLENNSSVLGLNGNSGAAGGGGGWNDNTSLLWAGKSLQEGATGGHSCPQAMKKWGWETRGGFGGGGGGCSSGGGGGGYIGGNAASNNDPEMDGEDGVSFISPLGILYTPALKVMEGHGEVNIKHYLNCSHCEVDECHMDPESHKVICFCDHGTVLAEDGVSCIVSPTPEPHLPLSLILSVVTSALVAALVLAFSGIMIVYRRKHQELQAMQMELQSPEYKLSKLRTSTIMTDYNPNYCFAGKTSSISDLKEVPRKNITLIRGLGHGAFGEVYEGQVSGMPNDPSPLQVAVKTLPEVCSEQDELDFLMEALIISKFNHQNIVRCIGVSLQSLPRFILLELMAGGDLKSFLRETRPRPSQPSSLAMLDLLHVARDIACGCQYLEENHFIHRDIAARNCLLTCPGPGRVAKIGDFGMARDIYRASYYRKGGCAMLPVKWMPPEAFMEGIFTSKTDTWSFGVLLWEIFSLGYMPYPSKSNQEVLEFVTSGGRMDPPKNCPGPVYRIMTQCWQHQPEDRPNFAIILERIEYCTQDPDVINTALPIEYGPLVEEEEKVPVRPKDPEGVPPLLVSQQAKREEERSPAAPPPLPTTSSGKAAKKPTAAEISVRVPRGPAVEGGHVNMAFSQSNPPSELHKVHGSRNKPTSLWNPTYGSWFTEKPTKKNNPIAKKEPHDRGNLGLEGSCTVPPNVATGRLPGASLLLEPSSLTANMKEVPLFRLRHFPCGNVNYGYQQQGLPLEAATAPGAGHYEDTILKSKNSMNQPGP
UniProt O14965: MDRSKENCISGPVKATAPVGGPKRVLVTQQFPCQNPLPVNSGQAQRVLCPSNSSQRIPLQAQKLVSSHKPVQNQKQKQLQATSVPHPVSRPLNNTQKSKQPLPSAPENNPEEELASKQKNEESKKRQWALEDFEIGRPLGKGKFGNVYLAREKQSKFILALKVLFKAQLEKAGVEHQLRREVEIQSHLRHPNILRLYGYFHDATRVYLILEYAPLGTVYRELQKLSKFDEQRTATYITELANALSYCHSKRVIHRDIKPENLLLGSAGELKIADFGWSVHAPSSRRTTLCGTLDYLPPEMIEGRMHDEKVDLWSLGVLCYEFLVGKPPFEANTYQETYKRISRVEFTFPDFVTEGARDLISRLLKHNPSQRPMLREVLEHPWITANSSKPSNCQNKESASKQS
UniProt Q96GD4, whole entry: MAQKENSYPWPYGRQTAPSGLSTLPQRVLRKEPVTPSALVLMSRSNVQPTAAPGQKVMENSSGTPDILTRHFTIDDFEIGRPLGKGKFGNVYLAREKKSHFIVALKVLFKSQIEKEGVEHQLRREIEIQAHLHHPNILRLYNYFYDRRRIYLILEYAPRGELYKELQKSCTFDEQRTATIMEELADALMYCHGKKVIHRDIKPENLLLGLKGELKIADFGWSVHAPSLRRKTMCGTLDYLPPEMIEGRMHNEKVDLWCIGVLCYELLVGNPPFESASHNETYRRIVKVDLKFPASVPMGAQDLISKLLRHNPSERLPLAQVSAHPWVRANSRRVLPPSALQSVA
UniProt P15056, whole entry, looked up: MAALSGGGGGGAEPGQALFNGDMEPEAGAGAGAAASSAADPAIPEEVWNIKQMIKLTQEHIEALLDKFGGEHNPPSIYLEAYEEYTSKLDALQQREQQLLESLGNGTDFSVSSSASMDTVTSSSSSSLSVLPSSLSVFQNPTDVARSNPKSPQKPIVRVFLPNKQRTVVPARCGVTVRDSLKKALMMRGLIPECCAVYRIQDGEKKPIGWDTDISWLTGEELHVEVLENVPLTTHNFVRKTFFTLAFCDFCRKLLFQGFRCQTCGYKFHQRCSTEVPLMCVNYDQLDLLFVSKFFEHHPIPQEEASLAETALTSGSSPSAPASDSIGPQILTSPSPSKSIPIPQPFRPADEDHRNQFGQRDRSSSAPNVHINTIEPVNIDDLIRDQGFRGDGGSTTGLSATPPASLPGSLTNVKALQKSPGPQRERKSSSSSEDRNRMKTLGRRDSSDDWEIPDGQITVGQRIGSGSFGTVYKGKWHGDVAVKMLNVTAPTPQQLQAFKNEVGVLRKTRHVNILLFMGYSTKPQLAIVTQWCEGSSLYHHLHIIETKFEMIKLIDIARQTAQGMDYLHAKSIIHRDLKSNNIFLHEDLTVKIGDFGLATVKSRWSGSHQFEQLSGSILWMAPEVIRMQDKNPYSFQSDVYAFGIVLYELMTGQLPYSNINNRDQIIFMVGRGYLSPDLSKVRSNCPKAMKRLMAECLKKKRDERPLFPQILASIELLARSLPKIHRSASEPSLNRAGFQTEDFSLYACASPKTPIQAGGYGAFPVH

How the values were obtained:
Details in all cases: K562; 2-18 h
[1] = target: STK38 (UniProt Q15208); assay: kinase-Nluc reporter destabilization hit call (1 = scored as downregulated) (binary); higher = compound decreases kinase abundance
[2] = target: SYK (UniProt P43405); assay: as above
[3] = target: TEC (UniProt P42680); assay: as above
[4] = target: TYK2 (UniProt P29597); assay: as above
[5] = target: ULK3 (UniProt Q6PHR2); assay: as above
[6] = target: YES1 (UniProt P07947); assay: as above
[7] = target: ZAK (UniProt Q9NYL2); assay: as above
[8] = target: ZAP70 (UniProt P43403); assay: as above
[9] = target: ABL1 (UniProt P00519); assay: number of time points (of 5) at which kinase-Nluc abundance scored as decreased, DMSO-normalised (count); higher = more persistent destabilization
[10] = target: AKT1 (UniProt P31749); assay: as above
[11] = target: ALK (UniProt Q9UM73); assay: as above
[12] = target: ARAF (UniProt P10398); assay: as above
[13] = target: AURKA (UniProt O14965); assay: as above
[14] = target: AURKB (UniProt Q96GD4); assay: as above
[15] = target: AURKC (UniProt Q9UQB9); assay: as above
[16] = target: BLK (UniProt P51451); assay: as above
[17] = target: BMX (UniProt P51813); assay: as above
[18] = target: BRAF (UniProt P15056); assay: as above
[19] = test system: BRAF_V600E; assay: as above
[20] = target: BTK (UniProt Q06187); assay: as above

O=c1oc2c(C3OCCCO3)c(O)ccc2c2c1CNCC2 (10 µM)
inactive: kinase-Nluc reporter destabilization hit call [1] 0 | kinase-Nluc reporter destabilization hit call [2] 0 | kinase-Nluc reporter destabilization hit call [3] 0 | kinase-Nluc reporter destabilization hit call [4] 0 | kinase-Nluc reporter destabilization hit call [5] 0 | kinase-Nluc reporter destabilization hit call [6] 0 | kinase-Nluc reporter destabilization hit call [7] 0 | kinase-Nluc reporter destabilization hit call [8] 0
0: number of time points [9] | number of time points [10] | number of time points [11] | number of time points [12] | number of time points [13] | number of time points [14] | number of time points [15] | number of time points [16] | number of time points [17] | number of time points [18] | number of time points [19] | number of time points [20]

Cc1c(NC(=O)c2cc3c(s2)CCCC3)cccc1-c1cn(C)c(=O)c(Nc2ccc([C@@H]3C(=O)N(C)CCN3C)cc2)n1 (10 µM)
inactive: kinase-Nluc reporter destabilization hit call [1] 0 | kinase-Nluc reporter destabilization hit call [2] 0 | kinase-Nluc reporter destabilization hit call [3] 0 | kinase-Nluc reporter destabilization hit call [4] 0 | kinase-Nluc reporter destabilization hit call [5] 0 | kinase-Nluc reporter destabilization hit call [6] 0 | kinase-Nluc reporter destabilization hit call [7] 0 | kinase-Nluc reporter destabilization hit call [8] 0
0: number of time points [9] | number of time points [10] | number of time points [11] | number of time points [12] | number of time points [13] | number of time points [14] | number of time points [15] | number of time points [16] | number of time points [17] | number of time points [18] | number of time points [19]

Cc1nc(-c2cnc(NC(C)C)n(C)c2=O)ccc1Oc1ccnc(-c2cnn(C)c2)c1 (2.5 µM)
0: number of time points [9] | number of time points [10] | number of time points [11] | number of time points [12] | number of time points [13] | number of time points [14] | number of time points [15] | number of time points [16] | number of time points [17] | number of time points [18] | number of time points [20]
1: number of time points [19]
inactive: kinase-Nluc reporter destabilization hit call [1] 0 | kinase-Nluc reporter destabilization hit call [2] 0 | kinase-Nluc reporter destabilization hit call [3] 0 | kinase-Nluc reporter destabilization hit call [4] 0 | kinase-Nluc reporter destabilization hit call [5] 0 | kinase-Nluc reporter destabilization hit call [6] 0 | kinase-Nluc reporter destabilization hit call [7] 0 | kinase-Nluc reporter destabilization hit call [8] 0

CC(C)Oc1cc(Nc2nc(N[C@@H](C)c3ccc(F)cn3)ncc2Cl)n[nH]1 (10 µM)
inactive: kinase-Nluc reporter destabilization hit call [1] 0 | kinase-Nluc reporter destabilization hit call [2] 0 | kinase-Nluc reporter destabilization hit call [3] 0 | kinase-Nluc reporter destabilization hit call [4] 0 | kinase-Nluc reporter destabilization hit call [5] 0 | kinase-Nluc reporter destabilization hit call [6] 0 | kinase-Nluc reporter destabilization hit call [7] 0 | kinase-Nluc reporter destabilization hit call [8] 0
0: number of time points [9] | number of time points [10] | number of time points [11] | number of time points [12] | number of time points [13] | number of time points [14] | number of time points [15] | number of time points [16] | number of time points [17] | number of time points [18] | number of time points [19] | number of time points [20]

O=S(=O)(NCCNC/C=C/c1ccc(Br)cc1)c1cccc2cnccc12 [H-89 (dihydrochloride)] (10 µM)
0: number of time points [9] | number of time points [10] | number of time points [11] | number of time points [12] | number of time points [13] | number of time points [14] | number of time points [15] | number of time points [16] | number of time points [17] | number of time points [18] | number of time points [19] | number of time points [20]
inactive: kinase-Nluc reporter destabilization hit call [1] 0 | kinase-Nluc reporter destabilization hit call [2] 0 | kinase-Nluc reporter destabilization hit call [3] 0 | kinase-Nluc reporter destabilization hit call [4] 0 | kinase-Nluc reporter destabilization hit call [5] 0 | kinase-Nluc reporter destabilization hit call [6] 0 | kinase-Nluc reporter destabilization hit call [7] 0 | kinase-Nluc reporter destabilization hit call [8] 0

Cn1c(=O)n(-c2ccc(C(C)(C)C#N)cc2)c2c3cc(-c4cnc5ccccc5c4)ccc3ncc21 [Dactolisib (Tosylate)] (10 µM)
inactive: kinase-Nluc reporter destabilization hit call [1] 0 | kinase-Nluc reporter destabilization hit call [2] 0 | kinase-Nluc reporter destabilization hit call [3] 0 | kinase-Nluc reporter destabilization hit call [4] 0 | kinase-Nluc reporter destabilization hit call [5] 0 | kinase-Nluc reporter destabilization hit call [6] 0 | kinase-Nluc reporter destabilization hit call [7] 0 | kinase-Nluc reporter destabilization hit call [8] 0
5: number of time points [9] | number of time points [18]
0: number of time points [10] | number of time points [12]
4: number of time points [13] | number of time points [14] | number of time points [19]
3: number of time points [15] | number of time points [16] | number of time points [17]
2: number of time points [11]

FC(F)(F)c1ccc(CNc2ccc(Cc3c[nH]c4ncc(Cl)cc34)cn2)cc1 (10 µM)
0: number of time points [9] | number of time points [10] | number of time points [11] | number of time points [12] | number of time points [13] | number of time points [14] | number of time points [15] | number of time points [16] | number of time points [17] | number of time points [18] | number of time points [19] | number of time points [20]
inactive: kinase-Nluc reporter destabilization hit call [1] 0 | kinase-Nluc reporter destabilization hit call [2] 0 | kinase-Nluc reporter destabilization hit call [3] 0 | kinase-Nluc reporter destabilization hit call [4] 0 | kinase-Nluc reporter destabilization hit call [5] 0 | kinase-Nluc reporter destabilization hit call [6] 0 | kinase-Nluc reporter destabilization hit call [7] 0 | kinase-Nluc reporter destabilization hit call [8] 0

CCCS(=O)(=O)Nc1ccc(F)c(C(=O)c2c[nH]c3ncc(Cl)cc23)c1F (10 µM)
3: number of time points [9]
0: number of time points [10] | number of time points [11] | number of time points [12] | number of time points [13] | number of time points [14] | number of time points [15] | number of time points [16] | number of time points [17] | number of time points [18] | number of time points [19] | number of time points [20]
inactive: kinase-Nluc reporter destabilization hit call [1] 0 | kinase-Nluc reporter destabilization hit call [2] 0 | kinase-Nluc reporter destabilization hit call [3] 0 | kinase-Nluc reporter destabilization hit call [4] 0 | kinase-Nluc reporter destabilization hit call [5] 0 | kinase-Nluc reporter destabilization hit call [6] 0 | kinase-Nluc reporter destabilization hit call [7] 0 | kinase-Nluc reporter destabilization hit call [8] 0

Cc1c(C(=O)N2CCOc3ccc(-c4ccc(N)nc4)cc3C2)ccc(S(C)(=O)=O)c1F (10 µM)
3: number of time points [13] | number of time points [17]
5: number of time points [9]
inactive: kinase-Nluc reporter destabilization hit call [1] 0 | kinase-Nluc reporter destabilization hit call [2] 0 | kinase-Nluc reporter destabilization hit call [3] 0 | kinase-Nluc reporter destabilization hit call [4] 0 | kinase-Nluc reporter destabilization hit call [5] 0 | kinase-Nluc reporter destabilization hit call [6] 0 | kinase-Nluc reporter destabilization hit call [7] 0 | kinase-Nluc reporter destabilization hit call [8] 0
0: number of time points [10] | number of time points [11] | number of time points [12] | number of time points [14] | number of time points [15] | number of time points [18] | number of time points [20]
2: number of time points [19]
1: number of time points [16]

COc1cc2nc(C)nc(N[C@H](C)c3cc(N)cc(C(F)(F)F)c3)c2cc1O[C@H]1CCOC1 (10 µM)
0: number of time points [10] | number of time points [11] | number of time points [12] | number of time points [13] | number of time points [14] | number of time points [15] | number of time points [16] | number of time points [17] | number of time points [18] | number of time points [19] | number of time points [20]
2: number of time points [9]
inactive: kinase-Nluc reporter destabilization hit call [1] 0 | kinase-Nluc reporter destabilization hit call [2] 0 | kinase-Nluc reporter destabilization hit call [3] 0 | kinase-Nluc reporter destabilization hit call [4] 0 | kinase-Nluc reporter destabilization hit call [5] 0 | kinase-Nluc reporter destabilization hit call [6] 0 | kinase-Nluc reporter destabilization hit call [7] 0 | kinase-Nluc reporter destabilization hit call [8] 0

CCc1nc(-c2cccc(C)c2)c(-c2ccnc(NC(=O)c3ccccc3)c2)s1 (10 µM)
inactive: kinase-Nluc reporter destabilization hit call [1] 0 | kinase-Nluc reporter destabilization hit call [2] 0 | kinase-Nluc reporter destabilization hit call [3] 0 | kinase-Nluc reporter destabilization hit call [4] 0 | kinase-Nluc reporter destabilization hit call [5] 0 | kinase-Nluc reporter destabilization hit call [6] 0 | kinase-Nluc reporter destabilization hit call [7] 0 | kinase-Nluc reporter destabilization hit call [8] 0
0: number of time points [9] | number of time points [10] | number of time points [11] | number of time points [12] | number of time points [13] | number of time points [14] | number of time points [15] | number of time points [16] | number of time points [17] | number of time points [18] | number of time points [19]

3 entries from above, arranged by molecular weight, falling.
Cc1c(C(=O)N2CCOc3ccc(-c4ccc(N)nc4)cc3C2)ccc(S(C)(=O)=O)c1F (10 µM)
3: number of time points [13] | number of time points [17]
5: number of time points [9]
inactive: kinase-Nluc reporter destabilization hit call [1] 0 | kinase-Nluc reporter destabilization hit call [2] 0 | kinase-Nluc reporter destabilization hit call [3] 0 | kinase-Nluc reporter destabilization hit call [4] 0 | kinase-Nluc reporter destabilization hit call [5] 0 | kinase-Nluc reporter destabilization hit call [6] 0 | kinase-Nluc reporter destabilization hit call [7] 0 | kinase-Nluc reporter destabilization hit call [8] 0
0: number of time points [10] | number of time points [11] | number of time points [12] | number of time points [14] | number of time points [15] | number of time points [18] | number of time points [20]
2: number of time points [19]
1: number of time points [16]

CCCS(=O)(=O)Nc1ccc(F)c(C(=O)c2c[nH]c3ncc(Cl)cc23)c1F (10 µM)
3: number of time points [9]
0: number of time points [10] | number of time points [11] | number of time points [12] | number of time points [13] | number of time points [14] | number of time points [15] | number of time points [16] | number of time points [17] | number of time points [18] | number of time points [19] | number of time points [20]
inactive: kinase-Nluc reporter destabilization hit call [1] 0 | kinase-Nluc reporter destabilization hit call [2] 0 | kinase-Nluc reporter destabilization hit call [3] 0 | kinase-Nluc reporter destabilization hit call [4] 0 | kinase-Nluc reporter destabilization hit call [5] 0 | kinase-Nluc reporter destabilization hit call [6] 0 | kinase-Nluc reporter destabilization hit call [7] 0 | kinase-Nluc reporter destabilization hit call [8] 0

CCc1nc(-c2cccc(C)c2)c(-c2ccnc(NC(=O)c3ccccc3)c2)s1 (10 µM)
inactive: kinase-Nluc reporter destabilization hit call [1] 0 | kinase-Nluc reporter destabilization hit call [2] 0 | kinase-Nluc reporter destabilization hit call [3] 0 | kinase-Nluc reporter destabilization hit call [4] 0 | kinase-Nluc reporter destabilization hit call [5] 0 | kinase-Nluc reporter destabilization hit call [6] 0 | kinase-Nluc reporter destabilization hit call [7] 0 | kinase-Nluc reporter destabilization hit call [8] 0
0: number of time points [9] | number of time points [10] | number of time points [11] | number of time points [12] | number of time points [13] | number of time points [14] | number of time points [15] | number of time points [16] | number of time points [17] | number of time points [18] | number of time points [19]
